Data on one molecule can be found in US20140045211A1.

Assay [1] concerns the target T1, Detergent-solubilized CCR1 (UniProt P32246).
T1 sequence (looked up): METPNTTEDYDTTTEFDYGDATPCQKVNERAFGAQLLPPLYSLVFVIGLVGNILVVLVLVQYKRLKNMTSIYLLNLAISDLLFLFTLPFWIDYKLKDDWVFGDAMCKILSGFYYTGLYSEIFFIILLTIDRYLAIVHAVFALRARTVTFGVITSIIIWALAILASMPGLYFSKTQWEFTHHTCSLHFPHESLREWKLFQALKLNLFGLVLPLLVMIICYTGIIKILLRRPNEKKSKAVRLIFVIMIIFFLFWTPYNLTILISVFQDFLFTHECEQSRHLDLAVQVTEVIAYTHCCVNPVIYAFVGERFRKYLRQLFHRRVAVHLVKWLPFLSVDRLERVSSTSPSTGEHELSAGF
Nature of the assay: chemokine affinity column; elution with 1 M NaCl; anti-CCR1 western blot. (In general: In western blotting, separated proteins are transferred to a membrane and probed.)

Assay [2] concerns the target T1, Detergent-solubilized CCR1. Put plainly: chemokine affinity column; anti-CCR1 western blot of load, flow-through, wash and eluates.

Results are given in words; binding and its absence hold for the method and conditions named. Some results given as binding are weak or reduced against the parent protein; the word gives no strength. Sequences can lack the tags named with a protein.

B1: Biotinylated CCL14 (CCL14 9-74 with C-terminal Avitag), immobilized on streptavidin agarose (ligand)
chain: GPYHPSECCFTYTTYKIPRQRIMDYYETNSQCSKPGIVFITKRGHSVCTNPSDKWVQDYIKDMKENKLGSGLNDIFEAQKIEWHE
modifications: biotin on the single specific lysine of the Avitag (BirA)
Consider B1, for which the binding result in assay [1] and in assay [2] was “binds” in each case.
